Results on eight substances are retold here after paper PMC5393896.

Amino acid sequences for entries named in this document (tags omitted). Residues count along the entry.
UniProt P53731: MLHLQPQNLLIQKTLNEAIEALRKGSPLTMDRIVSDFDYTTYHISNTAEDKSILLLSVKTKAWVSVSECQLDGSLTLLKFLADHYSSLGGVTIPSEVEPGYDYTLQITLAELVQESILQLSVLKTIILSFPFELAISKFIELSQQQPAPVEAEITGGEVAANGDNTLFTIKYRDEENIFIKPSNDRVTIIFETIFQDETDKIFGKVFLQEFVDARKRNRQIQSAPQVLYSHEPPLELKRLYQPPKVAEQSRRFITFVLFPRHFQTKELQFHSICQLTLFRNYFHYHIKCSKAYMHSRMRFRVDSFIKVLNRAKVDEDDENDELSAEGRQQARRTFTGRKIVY
UniProt P32599: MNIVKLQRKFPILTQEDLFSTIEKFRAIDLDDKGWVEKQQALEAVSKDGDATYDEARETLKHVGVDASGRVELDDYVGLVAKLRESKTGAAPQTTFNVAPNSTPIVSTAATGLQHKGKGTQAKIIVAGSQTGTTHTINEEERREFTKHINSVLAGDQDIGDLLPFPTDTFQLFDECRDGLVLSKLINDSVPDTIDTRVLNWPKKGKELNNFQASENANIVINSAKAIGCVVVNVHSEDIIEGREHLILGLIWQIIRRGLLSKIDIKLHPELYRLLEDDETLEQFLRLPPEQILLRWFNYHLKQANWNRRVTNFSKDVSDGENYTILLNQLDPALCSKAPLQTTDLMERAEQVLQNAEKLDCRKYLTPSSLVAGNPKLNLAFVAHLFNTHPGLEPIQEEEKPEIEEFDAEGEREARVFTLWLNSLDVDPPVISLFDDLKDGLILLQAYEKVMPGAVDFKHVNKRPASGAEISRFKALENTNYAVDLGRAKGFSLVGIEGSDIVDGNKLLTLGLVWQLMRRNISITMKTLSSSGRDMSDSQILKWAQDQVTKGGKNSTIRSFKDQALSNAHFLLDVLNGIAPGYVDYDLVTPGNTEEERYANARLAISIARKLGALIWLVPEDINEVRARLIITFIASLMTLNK
UniProt P47117: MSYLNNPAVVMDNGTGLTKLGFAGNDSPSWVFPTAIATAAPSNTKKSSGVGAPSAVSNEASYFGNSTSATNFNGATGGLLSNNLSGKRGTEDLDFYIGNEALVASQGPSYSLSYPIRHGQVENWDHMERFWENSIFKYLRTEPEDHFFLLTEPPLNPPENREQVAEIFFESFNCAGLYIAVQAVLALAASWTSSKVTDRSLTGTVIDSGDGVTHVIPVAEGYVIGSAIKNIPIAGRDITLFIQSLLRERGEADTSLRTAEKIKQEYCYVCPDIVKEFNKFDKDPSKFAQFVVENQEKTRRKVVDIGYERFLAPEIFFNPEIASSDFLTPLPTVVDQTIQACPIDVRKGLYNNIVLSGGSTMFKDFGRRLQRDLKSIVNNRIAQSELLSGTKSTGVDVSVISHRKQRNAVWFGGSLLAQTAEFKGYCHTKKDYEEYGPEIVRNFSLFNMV
UniProt P19882, residues 26-572: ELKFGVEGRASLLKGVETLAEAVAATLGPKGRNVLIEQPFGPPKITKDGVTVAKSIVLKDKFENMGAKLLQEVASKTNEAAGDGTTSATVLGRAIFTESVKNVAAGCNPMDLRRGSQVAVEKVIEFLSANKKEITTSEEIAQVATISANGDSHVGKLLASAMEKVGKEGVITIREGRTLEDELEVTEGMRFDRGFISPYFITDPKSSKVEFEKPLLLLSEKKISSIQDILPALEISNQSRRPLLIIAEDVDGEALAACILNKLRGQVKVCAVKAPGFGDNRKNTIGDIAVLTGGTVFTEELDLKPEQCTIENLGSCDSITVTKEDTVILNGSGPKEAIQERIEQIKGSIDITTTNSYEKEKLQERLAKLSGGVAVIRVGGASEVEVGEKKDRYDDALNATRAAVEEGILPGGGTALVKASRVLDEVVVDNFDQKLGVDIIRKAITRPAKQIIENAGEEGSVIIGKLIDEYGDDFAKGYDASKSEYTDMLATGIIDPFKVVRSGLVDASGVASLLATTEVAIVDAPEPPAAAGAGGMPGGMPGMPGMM
UniProt P38328: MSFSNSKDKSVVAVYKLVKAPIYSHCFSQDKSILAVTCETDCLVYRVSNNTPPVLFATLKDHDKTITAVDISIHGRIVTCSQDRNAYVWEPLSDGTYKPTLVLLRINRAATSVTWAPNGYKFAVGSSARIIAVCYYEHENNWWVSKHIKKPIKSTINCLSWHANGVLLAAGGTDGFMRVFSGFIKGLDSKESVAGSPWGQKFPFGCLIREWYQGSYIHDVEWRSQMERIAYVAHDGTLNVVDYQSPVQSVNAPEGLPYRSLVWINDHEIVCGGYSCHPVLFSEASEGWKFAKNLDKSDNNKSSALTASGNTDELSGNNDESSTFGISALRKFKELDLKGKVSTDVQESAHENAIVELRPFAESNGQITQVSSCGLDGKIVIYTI
UniProt P25694: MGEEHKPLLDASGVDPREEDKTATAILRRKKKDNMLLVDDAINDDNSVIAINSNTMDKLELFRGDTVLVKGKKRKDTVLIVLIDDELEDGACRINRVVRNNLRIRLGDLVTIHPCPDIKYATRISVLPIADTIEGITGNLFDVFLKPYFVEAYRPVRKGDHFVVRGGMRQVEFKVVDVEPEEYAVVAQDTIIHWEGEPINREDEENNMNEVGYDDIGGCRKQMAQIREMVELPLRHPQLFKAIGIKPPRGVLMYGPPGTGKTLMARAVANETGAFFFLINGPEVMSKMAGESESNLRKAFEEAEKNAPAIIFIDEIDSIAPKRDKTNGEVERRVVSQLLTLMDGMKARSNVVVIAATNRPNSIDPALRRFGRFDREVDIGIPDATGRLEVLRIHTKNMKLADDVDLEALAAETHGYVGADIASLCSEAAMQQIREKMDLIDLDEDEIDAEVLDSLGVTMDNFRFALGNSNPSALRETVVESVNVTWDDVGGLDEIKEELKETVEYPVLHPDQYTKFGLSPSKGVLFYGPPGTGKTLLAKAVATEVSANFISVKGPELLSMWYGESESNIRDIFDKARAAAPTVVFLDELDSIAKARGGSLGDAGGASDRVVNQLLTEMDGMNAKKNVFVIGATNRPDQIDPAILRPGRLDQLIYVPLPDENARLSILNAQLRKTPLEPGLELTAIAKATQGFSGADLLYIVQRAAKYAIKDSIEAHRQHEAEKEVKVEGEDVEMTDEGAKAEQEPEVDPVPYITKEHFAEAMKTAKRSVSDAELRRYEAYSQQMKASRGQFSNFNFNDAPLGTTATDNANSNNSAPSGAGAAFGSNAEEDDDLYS
UniProt P32381: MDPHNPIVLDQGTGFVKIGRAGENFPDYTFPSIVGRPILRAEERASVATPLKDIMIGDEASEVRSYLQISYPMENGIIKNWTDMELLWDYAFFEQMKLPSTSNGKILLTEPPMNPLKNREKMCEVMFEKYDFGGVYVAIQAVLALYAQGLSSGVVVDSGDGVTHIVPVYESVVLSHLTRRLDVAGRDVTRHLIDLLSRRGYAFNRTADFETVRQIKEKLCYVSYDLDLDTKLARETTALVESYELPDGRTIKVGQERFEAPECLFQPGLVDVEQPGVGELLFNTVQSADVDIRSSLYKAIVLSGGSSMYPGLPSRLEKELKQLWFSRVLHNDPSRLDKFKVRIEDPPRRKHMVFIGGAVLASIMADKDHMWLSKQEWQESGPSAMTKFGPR

These are yes or no findings as the source states them, for the method shown. Binding seen in cells or lysates may run through a third protein. These calls come from enrichment with a bait or labelling near it, and not all partners need be listed.

The assay has as its target Sup35 translation termination factor tagged at its C-terminus with a tandem affinity purification (TAP) tag (S. cerevisiae) (UniProt P05453). Kind of assay: affinity purification with mass spectrometry; Sup35-TAP affinity-purified by TAP chromatography from [PIN+][psi-] wild-type and tsa1 tsa2 mutant strains grown for 20 hours; co-purifying proteins identified by LC-MS in triplicate, kept if found in at least two of three replicates.

For the substance Arc35 (from UniProt P53731 1-342), the binding result is on record as “binds”. Take Sac6 (from UniProt P32599 1-642): the binding entry was “binds”. Take Arp3 (from UniProt P47117 1-449): the binding entry is recorded as “binds”.

In the case of Hsp60 (from UniProt P19882 26-572), the binding result is “binds”. As for Arc40 (from UniProt P38328 1-384), the binding entry was “binds”.

Take “Act1 (from UniProt P60010 1-375) (other; other documents disagree on this pair)”: the binding result was “binds”. As for Cdc48 (from UniProt P25694 1-835), the entry is “binds”; as for Arp2 (from UniProt P32381 1-391), “binds”.
